Laboratory results published in patent publication US8481749B2, “N-(tetrazol-5-yl)- and N-(triazol-5-yl)arylcarboxamides and their use as herbicides” (Bayer Cropscience AG, priority 2010, dated 2013).
Some of these results come from one statement about several compounds together.

Assays:
Format in all cases: in vivo
Veronica persica [1] = experiment: Post-emergence herbicidal action against harmful plants; details: post-emergence (one-leaf stage), application rate 80 g/ha, visual rating after about 3 weeks vs untreated controls
Abutilon theophrasti [2] = experiment: as above; details: post-emergence (one-leaf stage), application rate 80 g/ha, visual rating after about 3 weeks vs untreated controls
Amaranthus retroflexus [3] = experiment: as above; details: post-emergence (one-leaf stage), application rate 80 g/ha, visual rating after about 3 weeks vs untreated controls
Viola tricolor = experiment: as above; details: post-emergence (one-leaf stage), application rate 80 g/ha, visual rating after about 3 weeks vs untreated controls
Abutilon theophrasti [4] = experiment: Pre-emergence herbicidal action against harmful plants; details: application rate 80 g/ha, visual assessment after 3 weeks vs untreated controls (100%=plants have died, 0%=like control)
Amaranthus retroflexus [5] = experiment: as above; details: application rate 80 g/ha, visual assessment after 3 weeks vs untreated controls (100%=plants have died, 0%=like control)
Matricaria inodora = experiment: as above; details: application rate 80 g/ha, visual assessment after 3 weeks vs untreated controls (100%=plants have died, 0%=like control)
Veronica persica [6] = experiment: as above; details: application rate 80 g/ha, visual assessment after 3 weeks vs untreated controls (100%=plants have died, 0%=like control)
Echinocloa crus galli = experiment: as above; details: application rate 80 g/ha, visual assessment after 3 weeks vs untreated controls (100%=plants have died, 0%=like control)

Cn1ncnc1NC(=O)c1ccc(C(F)(F)F)cc1Cl [Compound 1-16]
at least 80%: herbicidal activity in percent against Veronica persica (Veronica persica [1]) | herbicidal activity in percent against Abutilon theophrasti (Abutilon theophrasti [2]) | herbicidal activity in percent against Amaranthus retroflexus (Amaranthus retroflexus [3]) | herbicidal activity in percent against Viola tricolor (Viola tricolor)

Cc1c(C(=O)Nc2ncnn2C)ccc(C(F)(F)F)c1S(C)(=O)=O [Compound 1-148]
at least 80%: herbicidal activity in percent against Abutilon theophrasti (Abutilon theophrasti [4]) | herbicidal activity in percent against Veronica persica (Veronica persica [1]) | herbicidal activity in percent against Abutilon theophrasti (Abutilon theophrasti [2]) | herbicidal activity in percent against Amaranthus retroflexus (Amaranthus retroflexus [5]) | herbicidal activity in percent against Matricaria inodora (Matricaria inodora) | herbicidal activity in percent against Veronica persica (Veronica persica [6]) | herbicidal activity in percent against Amaranthus retroflexus (Amaranthus retroflexus [3]) | herbicidal activity in percent against Viola tricolor (Viola tricolor) | herbicidal activity in percent against Echinocloa crus galli (Echinocloa crus galli)

Cc1c(C(=O)Nc2ncnn2C)ccc(S(C)(=O)=O)c1S(C)(=O)=O [Compound 1-188]
at least 80%: herbicidal activity in percent against Veronica persica (Veronica persica [1]) | herbicidal activity in percent against Abutilon theophrasti (Abutilon theophrasti [2]) | herbicidal activity in percent against Amaranthus retroflexus (Amaranthus retroflexus [3]) | herbicidal activity in percent against Viola tricolor (Viola tricolor)

CCc1c(C(=O)Nc2ncnn2C)ccc(C(F)(F)F)c1SC [Compound 1-205]
at least 80%: herbicidal activity in percent against Abutilon theophrasti (Abutilon theophrasti [4]) | herbicidal activity in percent against Amaranthus retroflexus (Amaranthus retroflexus [5]) | herbicidal activity in percent against Matricaria inodora (Matricaria inodora) | herbicidal activity in percent against Veronica persica (Veronica persica [6]) | herbicidal activity in percent against Amaranthus retroflexus (Amaranthus retroflexus [3]) | herbicidal activity in percent against Viola tricolor (Viola tricolor) | herbicidal activity in percent against Echinocloa crus galli (Echinocloa crus galli)

Cn1ncnc1NC(=O)c1ccc(S(C)(=O)=O)c(Cl)c1Cl [Compound 1-249]
at least 80%: herbicidal activity in percent against Abutilon theophrasti (Abutilon theophrasti [4]) | herbicidal activity in percent against Veronica persica (Veronica persica [1]) | herbicidal activity in percent against Abutilon theophrasti (Abutilon theophrasti [2]) | herbicidal activity in percent against Amaranthus retroflexus (Amaranthus retroflexus [5]) | herbicidal activity in percent against Matricaria inodora (Matricaria inodora) | herbicidal activity in percent against Veronica persica (Veronica persica [6]) | herbicidal activity in percent against Amaranthus retroflexus (Amaranthus retroflexus [3]) | herbicidal activity in percent against Viola tricolor (Viola tricolor) | herbicidal activity in percent against Echinocloa crus galli (Echinocloa crus galli)

Cn1ncnc1NC(=O)c1ccc(S(C)(=O)=O)c(COCC(F)(F)F)c1Cl [Compound 1-258]
at least 80%: herbicidal activity in percent against Abutilon theophrasti (Abutilon theophrasti [4]) | herbicidal activity in percent against Veronica persica (Veronica persica [1]) | herbicidal activity in percent against Abutilon theophrasti (Abutilon theophrasti [2]) | herbicidal activity in percent against Amaranthus retroflexus (Amaranthus retroflexus [5]) | herbicidal activity in percent against Matricaria inodora (Matricaria inodora) | herbicidal activity in percent against Veronica persica (Veronica persica [6]) | herbicidal activity in percent against Amaranthus retroflexus (Amaranthus retroflexus [3]) | herbicidal activity in percent against Viola tricolor (Viola tricolor) | herbicidal activity in percent against Echinocloa crus galli (Echinocloa crus galli)

CCS(=O)(=O)c1ccc(C(=O)Nc2ncnn2C)c(Cl)c1C1=NOC(CC#N)C1 (stereo not shown) [Compound 1-267]
at least 80%: herbicidal activity in percent against Veronica persica (Veronica persica [1]) | herbicidal activity in percent against Abutilon theophrasti (Abutilon theophrasti [2]) | herbicidal activity in percent against Matricaria inodora (Matricaria inodora) | herbicidal activity in percent against Veronica persica (Veronica persica [6]) | herbicidal activity in percent against Amaranthus retroflexus (Amaranthus retroflexus [3]) | herbicidal activity in percent against Viola tricolor (Viola tricolor)

COc1c(C(=O)Nc2ncnn2C)ccc(C(F)(F)F)c1SC [Compound 1-313]
at least 80%: herbicidal activity in percent against Veronica persica (Veronica persica [1]) | herbicidal activity in percent against Abutilon theophrasti (Abutilon theophrasti [2]) | herbicidal activity in percent against Amaranthus retroflexus (Amaranthus retroflexus [3]) | herbicidal activity in percent against Viola tricolor (Viola tricolor)

Cn1ncnc1NC(=O)c1ccc(S(C)(=O)=O)c(S(C)(=O)=O)c1C1CC1 [Compound 1-468]
at least 80%: herbicidal activity in percent against Veronica persica (Veronica persica [1]) | herbicidal activity in percent against Abutilon theophrasti (Abutilon theophrasti [2]) | herbicidal activity in percent against Amaranthus retroflexus (Amaranthus retroflexus [3]) | herbicidal activity in percent against Viola tricolor (Viola tricolor)

CCn1ncnc1NC(=O)c1ccc(C(F)(F)F)c(S(C)(=O)=O)c1C [Compound 2-148]
at least 80%: herbicidal activity in percent against Abutilon theophrasti (Abutilon theophrasti [4]) | herbicidal activity in percent against Veronica persica (Veronica persica [1]) | herbicidal activity in percent against Abutilon theophrasti (Abutilon theophrasti [2]) | herbicidal activity in percent against Amaranthus retroflexus (Amaranthus retroflexus [5]) | herbicidal activity in percent against Matricaria inodora (Matricaria inodora) | herbicidal activity in percent against Amaranthus retroflexus (Amaranthus retroflexus [3]) | herbicidal activity in percent against Viola tricolor (Viola tricolor) | herbicidal activity in percent against Echinocloa crus galli (Echinocloa crus galli)

Cn1nnnc1NC(=O)c1ccc(S(C)(=O)=O)cc1Cl [Compound 4-10]
at least 80%: herbicidal activity in percent against Abutilon theophrasti (Abutilon theophrasti [4]) | herbicidal activity in percent against Veronica persica (Veronica persica [1]) | herbicidal activity in percent against Abutilon theophrasti (Abutilon theophrasti [2]) | herbicidal activity in percent against Amaranthus retroflexus (Amaranthus retroflexus [5]) | herbicidal activity in percent against Veronica persica (Veronica persica [6]) | herbicidal activity in percent against Amaranthus retroflexus (Amaranthus retroflexus [3]) | herbicidal activity in percent against Viola tricolor (Viola tricolor) | herbicidal activity in percent against Echinocloa crus galli (Echinocloa crus galli)

Cc1c(C(=O)Nc2nnnn2C)ccc(Cl)c1N(C)C [Compound 4-96]
at least 80%: herbicidal activity in percent against Veronica persica (Veronica persica [1]) | herbicidal activity in percent against Abutilon theophrasti (Abutilon theophrasti [2]) | herbicidal activity in percent against Amaranthus retroflexus (Amaranthus retroflexus [3]) | herbicidal activity in percent against Viola tricolor (Viola tricolor)

Cc1c(C(=O)Nc2nnnn2C)ccc(Br)c1N(C)C [Compound 4-119]
at least 80%: herbicidal activity in percent against Veronica persica (Veronica persica [1]) | herbicidal activity in percent against Abutilon theophrasti (Abutilon theophrasti [2]) | herbicidal activity in percent against Amaranthus retroflexus (Amaranthus retroflexus [3]) | herbicidal activity in percent against Viola tricolor (Viola tricolor)

Cc1c(C(=O)Nc2nnnn2C)ccc(S(C)(=O)=O)c1N [Compound 4-148]
at least 80%: herbicidal activity in percent against Veronica persica (Veronica persica [1]) | herbicidal activity in percent against Abutilon theophrasti (Abutilon theophrasti [2]) | herbicidal activity in percent against Matricaria inodora (Matricaria inodora) | herbicidal activity in percent against Veronica persica (Veronica persica [6]) | herbicidal activity in percent against Amaranthus retroflexus (Amaranthus retroflexus [3]) | herbicidal activity in percent against Viola tricolor (Viola tricolor)

CSCCCOc1c(Cl)ccc(C(=O)Nc2nnnn2C)c1C [Compound 4-414]
at least 80%: herbicidal activity in percent against Veronica persica (Veronica persica [1]) | herbicidal activity in percent against Abutilon theophrasti (Abutilon theophrasti [2]) | herbicidal activity in percent against Amaranthus retroflexus (Amaranthus retroflexus [3]) | herbicidal activity in percent against Viola tricolor (Viola tricolor)

CCOc1c(C(=O)Nc2nnnn2C)ccc(Cl)c1[S+](C)[O-] (stereo not shown) [Compound 4-839]
at least 80%: herbicidal activity in percent against Veronica persica (Veronica persica [1]) | herbicidal activity in percent against Abutilon theophrasti (Abutilon theophrasti [2]) | herbicidal activity in percent against Amaranthus retroflexus (Amaranthus retroflexus [3]) | herbicidal activity in percent against Viola tricolor (Viola tricolor)

CCn1nnnc1NC(=O)c1ccc(I)c(OCC(=O)N(C)C)c1Br [Compound 5-802]
at least 80%: herbicidal activity in percent against Veronica persica (Veronica persica [1]) | herbicidal activity in percent against Abutilon theophrasti (Abutilon theophrasti [2]) | herbicidal activity in percent against Amaranthus retroflexus (Amaranthus retroflexus [3]) | herbicidal activity in percent against Viola tricolor (Viola tricolor)

Cc1c(C(=O)Nc2nnnn2-c2ccccc2)ccc(C(F)(F)F)c1S(C)(=O)=O [Compound 6-149]
at least 80%: herbicidal activity in percent against Abutilon theophrasti (Abutilon theophrasti [4]) | herbicidal activity in percent against Veronica persica (Veronica persica [1]) | herbicidal activity in percent against Abutilon theophrasti (Abutilon theophrasti [2]) | herbicidal activity in percent against Amaranthus retroflexus (Amaranthus retroflexus [5]) | herbicidal activity in percent against Matricaria inodora (Matricaria inodora) | herbicidal activity in percent against Veronica persica (Veronica persica [6]) | herbicidal activity in percent against Amaranthus retroflexus (Amaranthus retroflexus [3]) | herbicidal activity in percent against Viola tricolor (Viola tricolor)

CSc1c(C(F)(F)F)ccc(C(=O)Nc2nnnn2-c2ccccc2)c1F [Compound 6-238]
at least 80%: herbicidal activity in percent against Veronica persica (Veronica persica [1]) | herbicidal activity in percent against Abutilon theophrasti (Abutilon theophrasti [2]) | herbicidal activity in percent against Amaranthus retroflexus (Amaranthus retroflexus [3]) | herbicidal activity in percent against Viola tricolor (Viola tricolor)

Cc1c(C(=O)Nc2nnnn2-c2ccccc2)ccc(S(C)(=O)=O)c1-n1ccnn1 [Compound 6-475]
at least 80%: herbicidal activity in percent against Abutilon theophrasti (Abutilon theophrasti [4]) | herbicidal activity in percent against Veronica persica (Veronica persica [1]) | herbicidal activity in percent against Abutilon theophrasti (Abutilon theophrasti [2]) | herbicidal activity in percent against Amaranthus retroflexus (Amaranthus retroflexus [5]) | herbicidal activity in percent against Amaranthus retroflexus (Amaranthus retroflexus [3]) | herbicidal activity in percent against Viola tricolor (Viola tricolor)

C=CCOc1c(S(C)(=O)=O)ccc(C(=O)Nc2nnnn2CCC)c1Cl [Compound 7-325]
at least 80%: herbicidal activity in percent against Amaranthus retroflexus (Amaranthus retroflexus [3]) | herbicidal activity in percent against Viola tricolor (Viola tricolor)

CCCn1nnnc1NC(=O)c1ccc(C(F)(F)F)c([S+](C)[O-])c1C (stereo not shown) [Compound 7-411]
at least 80%: herbicidal activity in percent against Matricaria inodora (Matricaria inodora) | herbicidal activity in percent against Veronica persica (Veronica persica [6]) | herbicidal activity in percent against Amaranthus retroflexus (Amaranthus retroflexus [3]) | herbicidal activity in percent against Viola tricolor (Viola tricolor)

Cn1ncnc1NC(=O)c1ccc(C(F)(F)F)nc1Cl [Compound 8-9]
at least 80%: herbicidal activity in percent against Veronica persica (Veronica persica [1]) | herbicidal activity in percent against Abutilon theophrasti (Abutilon theophrasti [2]) | herbicidal activity in percent against Amaranthus retroflexus (Amaranthus retroflexus [3]) | herbicidal activity in percent against Viola tricolor (Viola tricolor)

CCn1nnnc1NC(=O)c1ccc(C(F)(F)F)nc1Cl [Compound 8-55]
at least 80%: herbicidal activity in percent against Amaranthus retroflexus (Amaranthus retroflexus [3]) | herbicidal activity in percent against Viola tricolor (Viola tricolor)

CCCn1nnnc1NC(=O)c1ccc(C(F)(F)F)nc1COCC(F)(F)F [Compound 8-64]
at least 80%: herbicidal activity in percent against Amaranthus retroflexus (Amaranthus retroflexus [3]) | herbicidal activity in percent against Viola tricolor (Viola tricolor)
